Plain letter strings leave the end groups untold.
Test: peptide made by a vendor
Conditions: whole synthesis

## CSNRDARRC (Bladder Tumor-Targeting Peptide 1)
  purity (crude or final not stated): 85% or higher

Reference: patent publication US7745410B2 (Kyungpook National University Industry-Academica …, priority 2006, dated 2010)
